For this series the following is noted: after either single or simultaneous administration of donepezil and Compound 11.

`COc1cc2c(cc1OC)C(=O)C(CC1CCN(Cc3ccccc3)CC1)C2` (stereo not shown) [donepezil, reference compound]: the “plasma and brain levels” value was “did not change”.

Values taken from US9994525B2, “H3 antagonists containing phenoxypiperidine core structure” (RICHTER GEDEON NYRT., priority 2013, dated 2018).
